# Laboratory results taken from the supplement of paper PMC4604168 (melanoma cell lines).
# This is one part of the list. Many values rest on one well or one pass, so single values are uncertain.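 Imaging used 1,536-well plates; nuclei positive for cleaved PARP by antibody were divided by total DNA-stained nuclei to yield the apoptosis fraction. Doses for screening kept most cells viable, and cell lines differ markedly in resting and induced cleaved-PARP levels.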
# Tests used:
# Assay in all cases: cleaved PARP positive nuclei fraction relative to DMSO control; melanoma cells; higher = more apoptosis
# Details in all cases: library dose: low library concentration; 72 h
# 501Mel = system: 501Mel
# A101D = system: A101D
# A2058 = system: A2058
# A375 = system: A375
# C32 = system: C32
# CBRC013 = system: CBRC013 (line from a melanoma biopsy)
# CBRC014 = system: CBRC014 (line from a melanoma biopsy)
# CBRC016 = system: CBRC016 (line from a melanoma biopsy)
# CBRC017 = system: CBRC017 (line from a melanoma biopsy)
SMILES,cleaved PARP positive nuclei fraction (501Mel) [%],cleaved PARP positive nuclei fraction (A101D) [%],cleaved PARP positive nuclei fraction (A2058) [%],cleaved PARP positive nuclei fraction (A375) [%],cleaved PARP positive nuclei fraction (C32) [%],cleaved PARP positive nuclei fraction (CBRC013) [%],cleaved PARP positive nuclei fraction (CBRC014) [%],cleaved PARP positive nuclei fraction (CBRC016) [%],cleaved PARP positive nuclei fraction (CBRC017) [%]
"CCN(CC)CCCCNc1ncc2cc(-c3cc(OC)cc(OC)c3)c(NC(=O)NC(C)(C)C)nc2n1 + O=c1cc(-c2cccc3c2Sc2ccccc2S3)oc(N2CCOCC2)c1 [KU55933] (first compound 0.1 µM, partner dose 1 µM)",36.2,48.9,110,55.1,81.7,60.3,79.3,103,59.9
"CN(NC(=O)CC(=O)NN(C)C(=S)c1ccccc1)C(=S)c1ccccc1 + Cn1cc(/C=C2\C(=O)Nc3cccnc32)c2ccccc21 [GW441756] (first compound 0.006 µM, partner dose 0.4 µM)",178,66.2,783,4200,264,344,462,154,388
"CCc1ccc(CCOc2ccc(CC3SC(=O)NC3=O)cc2)nc1 (stereo not given) [pioglitazone] + N#Cc1c(O)c2c(-c3ccc(-c4ccccc4O)cc3)csc2[nH]c1=O [A769662] (first compound 2 µM, partner dose 2 µM)",74.6,53.2,120,70.6,78.6,345,127,89.4,150
"CN(NC(=O)CC(=O)NN(C)C(=S)c1ccccc1)C(=S)c1ccccc1 + CCc1ccc(CCOc2ccc(CC3SC(=O)NC3=O)cc2)nc1 [pioglitazone] (first compound 0.006 µM, partner dose 2 µM)",316,212,107,685,586,22.4,972,101,163
"COc1cc2c(Oc3ccc4[nH]c(C)cc4c3F)ncnc2cc1OCCCN1CCCC1 [cediranib] + COc1cc2ncnc(Nc3ccc(Oc4ccccc4)cc3)c2cc1OC [SrcI1] (first compound 0.4 µM, partner dose 2 µM)",90.5,193,127,47.8,42.7,147,92.6,44.8,84.3
"c1cc(-c2cnn3cc(-c4ccc(OCCN5CCCCC5)cc4)cnc23)ccn1 [Dorsomorphin] + O=c1cc(-c2cccc3c2Sc2ccccc2S3)oc(N2CCOCC2)c1 [KU55933] (first compound 0.4 µM, partner dose 1 µM)",85.1,145,119,165,110,59.8,113,40,80.7
"COc1ccc(COc2ccc(Cc3cnc(N)nc3N)cc2OC)cc1 + O=C(O)C(=O)Nc1sc2c(c1C(=O)O)CCNC2 [TCS401] (first compound 1 µM, partner dose 1.66667 µM)",165,41.4,41,120,96.7,57.1,73.5,36.3,83
"Cn1cc(/C=C2\C(=O)Nc3cccnc32)c2ccccc21 + O=c1cc(-c2cccc3c2Sc2ccccc2S3)oc(N2CCOCC2)c1 [KU55933] (first compound 0.4 µM, partner dose 1 µM)",72.6,218,45.3,70.6,194,131,98.6,77,91.1
"Oc1nc(-c2ccc(C(F)(F)F)cc2)nc2c1CSCC2 + COc1cc(N2CCC(N3CCN(C)CC3)CC2)ccc1Nc1ncc(Cl)c(Nc2ccccc2S(=O)(=O)C(C)C)n1 [NVP-TAE684] (first compound 2 µM, partner dose 0.08 µM)",72.5,128,405,52.4,44.4,546,80.3,58.8,43.3
"CCc1ccc(CCOc2ccc(CC3SC(=O)NC3=O)cc2)nc1 (stereo not given) [pioglitazone] + Oc1cc(-c2nc(-c3ccccc3)[nH]c2-c2ccncc2)ccc1Cl [L779450] (first compound 2 µM, partner dose 0.2 µM)",63.4,106,85.5,682,93.6,143,95.6,46,100
"CN(C)S(=O)(=O)c1ccc2c(c1)/C(=C/c1cc3c([nH]1)CCCC3)C(=O)N2 + Oc1nc(-c2ccc(C(F)(F)F)cc2)nc2c1CSCC2 [XAV939] (first compound 0.4 µM, partner dose 2 µM)",68.4,102,59.9,27.7,200,87.9,104,92.3,74.7
"CCCCCCCCCCCC1=C(O)C(=O)C=C(O)C1=O [Embelin] + CC(C)CCN1c2nc(Nc3cc(F)c(O)c(F)c3)ncc2N(C)C(=O)C1C [BID1870] (first compound 1.2 µM, partner dose 0.2 µM)",322,125,67.1,15.4,38.1,88.4,99.3,21.1,86.6
"O=C(Nc1ccccc1)c1cc([N+](=O)[O-])ccc1Cl + O=C1NC(=O)/C(=C/c2ccc(-c3ccc(F)cc3O)o2)S1 [AS252424] (first compound 2 µM, partner dose 1 µM)",85.3,150,141,122,43.1,135,82.7,58.3,78.2
"COc1cc2c(Oc3ccc4[nH]c(C)cc4c3F)ncnc2cc1OCCCN1CCCC1 [cediranib] + COc1cc(N2CCC(N3CCN(C)CC3)CC2)ccc1Nc1ncc(Cl)c(Nc2ccccc2S(=O)(=O)C(C)C)n1 [NVP-TAE684] (first compound 0.4 µM, partner dose 0.08 µM)",171,114,194,187,140,91,103,82.3,78.5
"COc1ccc(COc2ccc(Cc3cnc(N)nc3N)cc2OC)cc1 + O=S(=O)(c1ccccc1)N(CC(F)(F)F)c1ccc(C(O)(C(F)(F)F)C(F)(F)F)cc1 [T0901317] (first compound 1 µM, partner dose 1.4 µM)",84.6,55.2,126,127,29.7,129,87.8,18,126
"Oc1nc(-c2ccc(C(F)(F)F)cc2)nc2c1CSCC2 + c1cc(-c2cnn3cc(-c4ccc(OCCN5CCCCC5)cc4)cnc23)ccn1 [Dorsomorphin] (first compound 2 µM, partner dose 0.4 µM)",78.9,238,64.1,178,141,112,89.1,42,87.6
"O=C(O)c1ccc(-c2c[nH]c3ncc(-c4ccccc4)cc23)cc1C1CCCC1 + CCc1ccc(CCOc2ccc(CC3SC(=O)NC3=O)cc2)nc1 [pioglitazone] (first compound 0.16 µM, partner dose 2 µM)",63.6,107,56.9,44.3,131,69.7,107,79.5,93.8
"COC(=O)c1sccc1S(=O)(=O)Nc1ccc(Nc2ccccc2)cc1OC + COc1cc(N2CCC(N3CCN(C)CC3)CC2)ccc1Nc1ncc(Cl)c(Nc2ccccc2S(=O)(=O)C(C)C)n1 [NVP-TAE684] (first compound 1 µM, partner dose 0.08 µM)",178,154,156,179,201,180,111,81.1,226
"CCc1ccc(CCOc2ccc(CC3SC(=O)NC3=O)cc2)nc1 (stereo not given) [pioglitazone] + Cn1cc(/C=C2\C(=O)Nc3cccnc32)c2ccccc21 [GW441756] (first compound 2 µM, partner dose 0.4 µM)",34.2,127,115,148,86.3,213,82,117,149
"O=C(O)c1ccc(-c2c[nH]c3ncc(-c4ccccc4)cc23)cc1C1CCCC1 + COc1ccc2c(c1)CCC1C2CCC2(C)C(NCCCCCCN3C(=O)C=CC3=O)CCC12 [U73122] (first compound 0.16 µM, partner dose 0.4 µM)",269,38.3,131,74,114,28.8,105,212,119
"O=C(O)c1ccc(-c2c[nH]c3ncc(-c4ccccc4)cc23)cc1C1CCCC1 + Oc1nc(-c2ccc(C(F)(F)F)cc2)nc2c1CSCC2 [XAV939] (first compound 0.16 µM, partner dose 2 µM)",128,71.3,71,118,224,375,170,168,91.5
"CN(C)S(=O)(=O)c1ccc2c(c1)/C(=C/c1cc3c([nH]1)CCCC3)C(=O)N2 + Oc1cc(-c2nc(-c3ccccc3)[nH]c2-c2ccncc2)ccc1Cl [L779450] (first compound 0.4 µM, partner dose 0.2 µM)",61.2,125,54.5,26,46.8,42.3,113,84.5,90.3
"COc1cc2ncnc(Nc3ccc(Oc4ccccc4)cc3)c2cc1OC + O=C(O)C(=O)Nc1sc2c(c1C(=O)O)CCNC2 [TCS401] (first compound 2 µM, partner dose 1.66667 µM)",75.9,74.8,117,45.1,35.6,28.4,78.6,128,59
"COC(=O)c1sccc1S(=O)(=O)Nc1ccc(Nc2ccccc2)cc1OC + CCN(CC)CCCCNc1ncc2cc(-c3cc(OC)cc(OC)c3)c(NC(=O)NC(C)(C)C)nc2n1 [PD173074] (first compound 1 µM, partner dose 0.1 µM)",157,183,92.8,119,33.1,194,104,93.5,107
"Oc1cc(-c2nc(-c3ccccc3)[nH]c2-c2ccncc2)ccc1Cl + O=c1cc(-c2cccc3c2Sc2ccccc2S3)oc(N2CCOCC2)c1 [KU55933] (first compound 0.2 µM, partner dose 1 µM)",91.8,58.7,136,99.7,77.7,94.9,97.1,88.8,102

# An excerpt from above, reduced to cleaved PARP positive nuclei fraction (C32) [%], cleaved PARP positive nuclei fraction (A101D) [%] and cleaved PARP positive nuclei fraction (CBRC017) [%]:
SMILES | cleaved PARP positive nuclei fraction (C32) [%] | cleaved PARP positive nuclei fraction (A101D) [%] | cleaved PARP positive nuclei fraction (CBRC017) [%]
O=C(Nc1ccccc1)c1cc([N+](=O)[O-])ccc1Cl + O=C1NC(=O)/C(=C/c2ccc(-c3ccc(F)cc3O)o2)S1 [AS252424] (first compound 2 µM, partner dose 1 µM) | 43.1 | 150 | 78.2
COc1cc2c(Oc3ccc4[nH]c(C)cc4c3F)ncnc2cc1OCCCN1CCCC1 [cediranib] + COc1cc(N2CCC(N3CCN(C)CC3)CC2)ccc1Nc1ncc(Cl)c(Nc2ccccc2S(=O)(=O)C(C)C)n1 [NVP-TAE684] (first compound 0.4 µM, partner dose 0.08 µM) | 140 | 114 | 78.5
